Results reported in PubChem BioAssay AID1347423 (Functional Genomics Laboratory (NCATS/FGL), 2020).
Hit rate of the full screen: of about 52,000 sequences, about 210 (0.4%) were called active.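 The calls were made as follows: active = gene whose silencing raises cell survival under the drug, median off-target-corrected z-score across its silencing RNAs 2 or more; inactive = the rest.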 The list shows a part of the results.

Test: Resistance to Poly (ADP-Ribose) Polymerase inhibitor: Gene Identification via Genome-wide siRNA Screen
Details: mouse BRCA2 R2336H ES cells, olaparib, CellTiter-Glo viability; hits give high values
In short: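 Genome-wide siRNA screen (3 siRNAs/gene, 20 nM) in mouse ES cells carrying hypomorphic BRCA2 R2336H; olaparib 500 nM added 48 h post-transfection, CellTiter-Glo viability 72 h later. Normalized to plate-median negative control; MAD z-scores, gene median, seed-adjusted.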

Row | Sequence | z-score
1 | GGCACUUGAAUUUCUAAGUTT against Cbx5 | inactive: 1.18
2 | GCAGGAACACUGGUUUGAATT against DXImx46e | inactive: -1.71
3 | GGACUUUAGUGACAGCUAUTT against 4930563D23Rik | inactive: -1.06
4 | GGAGAAGAGGACAGAAGCCTT against Akt1s1 | inactive: -0.0445
5 | GGAGAGAAAAAAGUCUCUCTT against Olfr66 | inactive: 1.12
6 | GGAGUUCAUGCAAGUCCGATT against 2900055D14Rik | inactive: -0.119
7 | CGAUCCAGACUUUGUCCCUTT against 2610524A10Rik | inactive: -0.488
8 | GGAGAAGAACGAGAAACGUTT against 9430031J16Rik | inactive: -0.94
9 | GGAGCAGUCUCCUUUUUGUTT against Pcnp | inactive: -1.17
10 | GGUCAGAGUACAGCUCCGUTT against Mcpt7 | inactive: -1.55
11 | GCACCAAUACAUUUGGACCTT against 5830411E10Rik | inactive: 0.654
12 | CCGGCUAAGAAAGACAAUUTT against Dnclic1 | inactive: 0.976
13 | GGCUUAUUCCCUAAUUAAATT against LOC217066 | inactive: 0.974
14 | CCAUCUUGAGUGAUAAGAATT against Siat4c | inactive: -0.232
15 | GGUACGAAGAAGACAAAAATT against Tnfsf9 | inactive: 0.469
16 | GCUAAUAUGCCACUGCCCGTT against Pls3 | inactive: 0.0497
17 | GAUGCCCAAUGUGCAAAUGTT against Defcr-rs12 | inactive: 0.0188
18 | GGUGCAUGAAGAGUUAAAATT against Phf17 | inactive: 0.0649
19 | CCAUCCUGCUGUUUGCAUCTT against AB124611 | inactive: 1.39
20 | GGAGAAGUCCAUACGGAUCTT against Gpr18 | inactive: 0.202
21 | GGACAUUGCUGUAUUUAUCTT against 2610027L16Rik | inactive: -0.256
22 | GGCGCAUUCCUCUGUAGAATT against Ddc | inactive: -1.04
23 | GCUUAGAAUCUCUGGACAATT against 3110001H15Rik | inactive: -2.82
24 | GGACGAUCUAGCAUUCAUGTT against D430038H04Rik | inactive: -1.08
25 | GCUUAGUGACCAUCUCCGUTT against E130012A19Rik | inactive: 0.564
26 | GGGCAUUGUUGAGCACCUUTT against Tmem8 | inactive: -1.52

As entered above:
GAUGCCCAAUGUGCAAAUGTT against Defcr-rs12 | z-score: inactive: 0.0188
GGAGCAGUCUCCUUUUUGUTT against Pcnp | z-score: inactive: -1.17
GGACAUUGCUGUAUUUAUCTT against 2610027L16Rik | z-score: inactive: -0.256
CCGGCUAAGAAAGACAAUUTT against Dnclic1 | z-score: inactive: 0.976
GGAGAAGAACGAGAAACGUTT against 9430031J16Rik | z-score: inactive: -0.94

Next results

Row | Sequence | z-score
27 | UUUCCUGGAACUCGACAGGTT against Wdr34 | inactive: 1.88
28 | CGAGGCUGAAAGAUUGUAUTT against ORF5 | inactive: -0.694
29 | GGUGGAGACCCUGAUAAGUTT against Harp | inactive: -0.245
30 | GCCCUCGGACUGAAAACAATT against Chrm5 | inactive: 0.861
31 | CCAAUCGGAAAUUUUACUGTT against Sh3yl1 | inactive: -0.233
32 | GGACUUAAGAAAGAUGUGUTT against A130010J15Rik | inactive: 0.386
33 | GGUGCUUCGUUUAUUACCATT against Lig3 | inactive: -1.29
34 | GGAACAAACCAAGUUCACATT against Kcnip2 | inactive: -1.08
35 | CUACACGUAAGGAUGUAUCTT against Faim3 | inactive: 0.533
36 | CGAUACGCUACUGCAGGUGTT against H1fx | inactive: 0.768
37 | CCCUAGGUCAUAGCUUGACTT against AI413414 | inactive: -0.0745
38 | GGUAGAAAGUAUGGCUCCATT against Ppp1r9a | inactive: 0.254
39 | GGAAAUAAGCAGCGCAUGCTT against 1810043M15Rik | inactive: 3.37
40 | CCUCAUAGGAGAAUCUCCCTT against 2310076L09Rik | inactive: 1.68
41 | GGUUGGUCCUGAUGAAGAATT against Tnnt2 | inactive: -0.129
42 | GGAAAAGAGUGAUUUCCUATT against Csdufd1 | inactive: 0.804
43 | GGCUUGGAAUGACACUACUTT against Maged1 | inactive: 1.15
44 | GGAGAUGAUCGACGAAGUATT against Tnnc1 | inactive: 1.49
45 | CGUCUACUUAUCAAUAUGATT against Rbm5 | inactive: 1.4
46 | CCGGAAUCAAAACCUCUAGTT against BC021611 | inactive: 0.0833
47 | GCAAGUUGUCCUCACCUGUTT against Mynn | inactive: 0.82
48 | GCCAGACUGAGCUACAAAATT against 1700049E17Rik | inactive: -1.64
49 | CUGCAAACAGAGAGCAGCGTT against 1200009F10Rik | inactive: 2.23
50 | CCUACAAAACCCUCAUGCUTT against Trik | inactive: -0.316
51 | GGUUGACCUGUGCUUUUCGTT against Arr3 | inactive: 0.325
52 | GGAUCAGGAAGUAAACUUCTT against S100a6 | inactive: -0.232

Row | Sequence | z-score
53 | GAAGACGAACUCUACCAGGTT against Folr4 | inactive: 0.447
54 | GGUCAAUUUUAGAGAGAUCTT against Tceb1 | inactive: -0.328
55 | GGAUGAGAAUGGCACCAGUTT against Prima1 | inactive: -0.878
56 | GGAUCAGGAAGGAUUCGGATT against Zfp84 | inactive: -0.498
57 | CCCAGGUGAUUCUGAUAUUTT against Rpl30 | inactive: -2.1
58 | GGGUGAUGUGUUUAUUAAGTT against Crp | inactive: 1.08
59 | GGGAUUGUAUGAGUGCACATT against 5330414O08Rik | inactive: 0.369
60 | GGUGAAGAAGGAGACAAAGTT against 1200015A22Rik | inactive: -2.44
61 | GCUGGAUCACACUAUAUGUTT against 4921509E05Rik | inactive: -0.796
62 | GCAUAAACAGGCAUUAAAUTT against Sav1 | inactive: -0.896
63 | GGUCAACAUUAAAAUACUGTT against Map2k4 | inactive: -1.24
64 | CGAGCACAGUGACUACUACTT against A930021H16Rik | inactive: -1.27
65 | GCGGCAAUUCAAAUGAGUCTT against Rnf14 | inactive: 0.256
66 | GGAGUACGAGGAGAUUAUGTT against Ubtf | inactive: -0.505
67 | GCUAUCAAUACCUCAGUUATT against Syt2 | inactive: 1.24
68 | GGACUUCCUAUGAAGACAUTT against Neu4 | inactive: 0.0851
69 | CCCAUUAAAAAUCGUUCUGTT against Rcl1 | inactive: -2.11
70 | GGGUUAAAUGGUUUUAACATT against E2f7 | inactive: 0.959
71 | GGACAGCUACCUCAUCCAUTT against Grcc3f | inactive: -0.825
72 | ACACUUGCAUCAUCUUUGCTT against Olfr740 | inactive: -0.846
73 | CCAGCUUCAUGCGUUUAAATT against Stx16 | inactive: 1.07
74 | GGAAUCAUCUGAACACACATT against Ctcf | inactive: 1.31
75 | CGGGAUAUCAUCUGAAUAATT against Disp1 | inactive: -2.11
76 | GACCUGUUUUGUCUUUUGCTT against Ms4a4c | inactive: 0.341
77 | GGUUCUUUUUACUCAGUGGTT against 9130019P20Rik | inactive: 0.0201
78 | GGAAGAAAGAGUGUAUCAATT against 4833405L16Rik | inactive: -0.21

Row | Sequence | z-score
79 | CCGGACUCAGGGUUAAAGUTT against Apoc4 | inactive: -0.737
80 | CGGGCAGUACUAUGAUUUGTT against Ppp1cc | inactive: -0.141
81 | GGUUUCGUCUUGAUAUCUATT against Trpc1 | inactive: 0.0388
82 | GGAAAUCAAGCUGAAGUUATT against 4930579C15Rik | inactive: 1.46
83 | GGAGAAGUUUAAGGAGAUUTT against Dnajb5 | inactive: -0.391
84 | GGUAAAAAAUGCUUUCAACTT against Olfr1008 | inactive: 0.547
85 | GGGACAUUUCUGUAUUGAGTT against Psg21 | inactive: -0.435
86 | GCAAGACUUGCUGAUAGAGTT against Cyp2j6 | inactive: 0.19
87 | CGGACUAUUGGAGACCAACTT against Gpsm2 | inactive: 1.34
88 | GCAAAAUUUACUGUUAGACTT against 4930511H11Rik | inactive: 2.28
89 | GGUUGUUUAUACCUGUGAUTT against Cfh | inactive: -0.654
90 | GCUGUCGUUGAAGGCAUUGTT against Olfr317 | inactive: -0.568
91 | GGGAGCUUUCCAGUAACUGTT against Rfng | inactive: -0.336
92 | GGAUAUUUUGGACUCCUUATT against Gm1382 | inactive: 0.314
93 | GGGCAAGGUGAAGCAUUAATT against Numa1 | inactive: -1.85
94 | GGUUCAGUGCUUUGUGUUCTT against Il2rg | inactive: -0.148
95 | GGAGCAGAUGUCAACAAAATT against Invs | inactive: 1.25
96 | CCAAAGCUAGGUCAUUUUATT against Slc31a2 | inactive: 0.72
97 | GGUUCUAAACCUAGCUUUUTT against 9030227G01Rik | inactive: -0.456
98 | GUGCUUCUGAUCUCCUACATT against Olfr223 | inactive: 0.804
99 | CCUAGCAGUACUGUACGGUTT against Kns2 | inactive: 0.123
100 | GGUACAAGAUAUUGUGAAATT against Fgd3 | inactive: -1.08
101 | GGUGUAGCAACCAACCCAATT against Tpsg1 | inactive: 0.306
102 | GGCAGAGCCAGAAAAAUUGTT against Slc30a1 | inactive: 0.162
103 | GGACAGAGGACAAGCAGAATT against Ghrl | inactive: -1.15
104 | GGUGCAGUUUUAUACCUAUTT against Rtn4rl1 | inactive: 0.619
